Reference: patent US20190367619A1 (ARGENX, published 2019)
These are yes or no findings as the source states them, for the method shown. Some binding calls cover weakened binding; strength is not graded here. For part of these data: Where a sequence is shown, tags or fusion partners need not be part of it.

T1: human galectin-10-His (recombinant human galectin-10 with TEV-cleavable N-terminal His-tag) (human)
T1 sequence: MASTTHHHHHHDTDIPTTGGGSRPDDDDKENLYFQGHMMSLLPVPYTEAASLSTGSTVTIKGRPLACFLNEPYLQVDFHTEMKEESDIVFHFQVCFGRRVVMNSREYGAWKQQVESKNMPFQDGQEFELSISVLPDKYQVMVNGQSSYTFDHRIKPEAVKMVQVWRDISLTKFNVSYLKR

T2: TEV-cleaved wild-type recombinant human galectin-10 (soluble, in Fab complexes, or as recombinant galectin-10 crystals / CLCs) (human) (UniProt Q05315)
T2 sequence: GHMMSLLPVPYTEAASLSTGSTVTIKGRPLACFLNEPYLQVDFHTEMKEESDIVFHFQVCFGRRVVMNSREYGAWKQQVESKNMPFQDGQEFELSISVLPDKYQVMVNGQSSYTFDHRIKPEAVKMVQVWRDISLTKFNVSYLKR

T3: human galectin-10-His (human)
T3 sequence: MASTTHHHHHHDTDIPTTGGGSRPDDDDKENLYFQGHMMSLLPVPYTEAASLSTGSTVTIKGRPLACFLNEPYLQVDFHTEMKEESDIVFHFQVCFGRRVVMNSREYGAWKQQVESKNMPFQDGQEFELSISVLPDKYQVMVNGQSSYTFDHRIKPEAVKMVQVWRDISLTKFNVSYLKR


Experiments:
[1] = molecular target: T1, human galectin-10-His (recombinant human galectin-10 with TEV-cleavable N-terminal His-tag) (human); assay: BLI tandem on galectin-10-His, isotype control as saturating antibody
[2] = molecular target: T2, TEV-cleaved wild-type recombinant human galectin-10 (soluble, in Fab complexes, or as recombinant galectin-10 crystals / CLCs) (human); assay: complex isolated by size-exclusion chromatography and co-crystallized
[3] = molecular target: T1, human galectin-10-His (recombinant human galectin-10 with TEV-cleavable N-terminal His-tag) (human); assay: ELISA, scFv-hFc on coated galectin-10-His (0.2 ug/mL)
[4] = molecular target: T3, human galectin-10-His (human); assay: ELISA, Gal10-His coated at 1 ug/mL, VHH titrated, anti-Myc-HRP

| Binder | binding [1] | binding [4] | other results |
| --- | --- | --- | --- |
| 2C07 mouse IgG1 (antibody, V domains shown, VH on mouse IgG1 heavy chain constant domains (CH1-CH2-CH3), VL on mouse lambda light chain constant domain; also called 2C07 mIgG1) VH: ELQLVESGGGLVQPGGSLRLSCAASGFTFSSYAMSWVRQAPGKGLEWVSNINSGGGSTGYADSVKGRFTISRDNAKNTLYLQMNSLKPEDMAVYYCAKYLRTYYPNAAFGMDYWGKGTLVTVSS VL: QAVLTQPSAVSVSLGQTARITCQGGNFGRYYASWYQQKPGQAPVLVIYRDSERPSGIPERFSGSSSGDTATLTISGAQAEDEADYYCQSGRSSDNAVFGGGTHLTGL | binds | – | – |
| 2F09 mouse IgG1 (antibody, V domains shown, VH on mouse IgG1 heavy chain constant domains (CH1-CH2-CH3), VL on mouse lambda light chain constant domain; also called 2F09 mIgG1) VH: QVQVQESGPGLVKPSQTLSLTCTVSGGSITTNYFYWSWIRQSPGKGLEWIGAIAYSGRTYYSPSLKSRTSISRDTSNNQFTLQLSSVTPEDTAVYYCARGPKGLASYYDYWGQGTQVTVSS VL: SSALTQPSAVSVSLGQTARITCQGGNFGYYYVSWYQQKPGQAPVLVIYRDSGRPSGIPERFSGSSSGDTATLTISGAQAEDEADYYCQSGSSSDNTVFGGGTHLTVL | binds | – | – |
| 6A05 mouse IgG1 (antibody, V domains shown, also called 6A05 mIgG1) VH: EVQLVESGGGLVQPGGSLRLSCAASGFTFSSYAMSWVRQAPGKGLEWVSAINSGGGWTSYVDSVKGRFTISRDNAKNTLYLQMDSLKPEDTAVYYCTKYSGPELNTQYGMDYWGKGTLVTVSS VL: NFMLTQPSAVSVSLGQTARITCQGGNFGSYYASWYQQKPGQAPVLVIYRDSGRPSGIPERFSGSSSGDTATLTISGAQAEDEADYYCQSGSSSDNTVFGGGTHLTVL | binds | – | – |
| 6A08 mouse IgG1 (antibody, V domains shown, also called 6A08 mIgG1) VH: QVQLVESGGGLVQPGGSLRLSCAASGFTFSSYAMSWVRQAPGKGPEWVSAINRGGGSTYYADSVKGRFTISRDNAKNTLYLQMNSLKPEDAAVYYCATPGDRLWYYRYDYWGQGAQVTVSS VL: QTVVTQEPSLSVSPGGTVTLTCGLSSGSVTSSNYPGWYQQTPGQAPRLLIYNTNSRYSGVPNRFSGSISGNKAALIISGAQPEDEADYHCALNRVRGTYRVFGGGTHLTVL | binds | – | – |
| 6B06 mouse IgG1 (antibody, V domains shown, also called 6B06 mIgG1) VH: QVQRQESGPGLVKPSQTLSLTCTVSGGSITTNYYSWSWIRQPPGKGLEWIGYIAYSGSTSYSPSLKSRTSISRDTSNNQFSLQLSSVTPEDTAVYYCARSRSSPTTFGMDYWGKGTLVTVSS VL: SSALTQPSAVSVSLGQTARITCQGGNFGRYYVSWYTQKPGQAPVLVIYQDSERPTGIPERFSGSSSGDTATLTISGAQAEDEADYYCQSGTSSDNIVFGGGTHLTVL | binds | – | – |
| 6E10 mouse IgG1 (antibody, V domains shown, also called 6E010; 6E10 mIgG1) VH: QLQLVESGGGLVQPGGSLRLSCAASGFTFSSYWMYWVRQAPGKGLEWVSAINTGGGSTYYADSVKGRFTISRDNAKNTLYLQMNSLKPEDTALYYCARAGSGVAGTGYDYWGQGTQVTVSS VL: QPVLNQPSAVSVSLGQTARITCQGGNFGYYYVSWYQQKPGQAPVLVIYRDSGRPSGIPERFSGSSSGDTATLTISGAQAEDEADYYCQSGSSSDNAVFGGGTHLTVL | binds | – | – |
| 6F06 mouse IgG1 (antibody, V domains shown, also called 6F06 mIgG1) VH: QVQLVESGGGLVQPGGSLRLSCAASEFTFSRYSMSWVRQAPGKGLEWVSTINSGGGSTSYVDSVKGRFTISRDNAKNTLYLQMNSLKPEDTAVYYCTKSQGGISFSTQYGMDYWGKGTLVTVSS VL: NFMLTQPSAVSVSLGQTARITCQGGNFGRYYANWYQQKPGQAPVLVIYKDSERPSGIPERFSGSSSGDTATLTISGAQAEDESDYYCQSGSVSDNAVFGGGTHLAVL | binds | – | – |
| 1D11 Fab (Fab, V domains shown) VH: QVQLVESGGGLVQPGGSLRLSCAASGFTFDDYAMSWVRQAPGKGLEWVSGISWNGGSTYYAESMKGRFTISRDNAKNTLYLQMNSLKSEDTAVYYCAKDRNLGYRLGYPYDYWGQGTQVTVSS VL: QSVLTQPPSVSGSPGETVTISCAGTSSDVGYGNYVSWYQQLPGMAPRLLIYEVNKRASGITDRFSGSKSGNTASLTISGLQSEDEGDYYCASYRSSNNAVFGGGTHLTVL | – | – | binding [2]: binds |
| 6F05 Fab (Fab, V domains shown, VH on human CH1 constant domain (with part of the hinge region), VL on human lambda constant domain; also called 6F5; Fab 6F5) VH: QLQLVESGGGLVQPGGSLRLSCAASGFTFSSYAMSWVRQAPGKGLEWVSAINSGGGSTSYADSVKGRFTISRDNAKNTLYLQMNSLKPEDTAVYYCATPGDRLWYYRYDYWGQGTQVTVSS VL: QAGLTQPPSVSGTLGKAVTISCAGTSSDIGYGNYVSWYQQLPGTAPKLLIYKVSRRASGVPDRFSGSKSGNTASLSISGLQSEDEADYYCASYRYRNNVVFGGGTHLTVL | – | – | binding [2]: binds |
| 4E08 Fab (Fab, V domains shown, VH on human CH1 constant domain (with part of the hinge region), VL on human lambda constant domain; also called 4E8; Fab 4E8) VH: QVQRQESGPGLVKPSQTLSLTCTVSGGSITTSYYAWSWIRQPPGKGLEWMGVIASDGSTYYSPSLKSRTSISRDTSKNQFSLQLSSVTPEDTAVYYCALYIRGSSWSGWSAYDYWGQGTQVTVSS VL: QPVLNQPSAVSVSLGQTARITCQGGNFGYYYGSWYQQKPGQAPVLVIYKDSERPSGIPERFSGSSSGGTATLTISRAQAEDEADYYCQSADSSDNPVFGGGTHLTVL | – | – | binding [2]: binds |
| 1A12 scFv-human Fc (Fc fusion, about 100 kDa on SDS-PAGE; also called 1A12 ScFv-hFc; not shown: CH2-CH3 constant domains of human IgG1 (vector pUPEX50)) scFv: QVQLVESGGGLVQPGGSLRVSCAASGFTFSSYYMSWVRQAPGKGLEWVSAINSGGGSTYYADSVKGRFTISRDNAKNTLYLQMNSLKSEDTAVYYCVQNGGIWSFGSWGQGTQVTVSSGGGGSGGGGSGGGGSSSALTQPSAISVSLGQTARITCQGGNFGYYYVSWYQQKPGQAPVQVIYGDSNRPSGIPERFSGSSSGGTATLTISGAQAEDEADYYCLSYESSDYPVFGGGTHLTVL | – | – | binding [3]: binds |
| VHH clone 13A05 (VHH, Purified VHH-Myc-His from E. coli; not shown: Myc and His tags of the phagemid vector) VHH: QVQLVESGGGLVQAGGSLRLSCAASSSSYSMSWFRQAPGKEREFVAIISWSGGTYYDDSVKGRFTVSRDNAKNTVYLQMNSLKPEDTAVYYCAAGTQFSFSYREYDYWGQGTQVTVSS | – | binds | – |
| VHH clone 13C06 (VHH, Purified VHH-Myc-His from E. coli; not shown: Myc and His tags of the phagemid vector) VHH: QLQLVESGGGLVQAGGSLRLSCAASSSSYSMGWFRQAPGKEREFVATISWSGGFYYDDSVKGRFTVSRDNAKNTVYLQMNSLKPEDTAVYYCAAGTRFSFSYREYHYWGQGTQVTVSS | – | binds | – |
| VHH clone 13C07 (VHH, Purified VHH-Myc-His from E. coli; not shown: Myc and His tags of the phagemid vector) VHH: QLQVVESGGGLVQAGGSLRLSCAASSSAYSMAWFRQAPGKEREFVAAITWSGGSHHDDSVKGRFTISRDGAKNTVYLQMNSLKPEDTAVYYCAVGTLYSFSYRDYDYWGQGTQVTVSS | – | binds | – |
| VHH clone 13G12 (VHH, Purified VHH-Myc-His from E. coli; not shown: Myc and His tags of the phagemid vector) VHH: QLQVVESGGGLVQAGGSLRLSCAASSSAYSMGWFRQAPGKEREFVAVISWSGGSHYDDSVKGRFTISRDGAKNTVYLQMNSLKPEDTAVYYCAVGTLYSFRYRDYDYWGQGTQVTVSS | – | binds | – |
| VHH clone 13E09 (VHH, Purified VHH-Myc-His from E. coli; not shown: Myc and His tags of the phagemid vector) VHH: QVQVQESGGGLVQAGNSLRLSCAASGRTFSSYHMMWFRQAPGKEREFVAAIAWRGGTYCANSVKGRCTISRDNAKDTVYLQMNSLKPEDTAVYFCAASLRYVFDPSAMDYWGKGTLVTVSS | – | binds | – |
| VHH clone 13H07 (VHH, Purified VHH-Myc-His from E. coli; not shown: Myc and His tags of the phagemid vector) VHH: QLQLVESGGGLVQAGGSLRLSCVASGRTFSTYAMDWFRQAPGKEREFVAAISWHSAIYYADAVKGRFTISRDNGKNTMYLQMNNLKPEDTAVYFCAAALRYRFNPSAMEYWGKGTLVTVSS | – | binds | – |
| VHH clone 13C03 (VHH, Purified VHH-Myc-His from E. coli; not shown: Myc and His tags of the phagemid vector) VHH: QVQLVESGGGLVQPGGSLRLSCAASGSIFSISRMGWYRQAPGKQRELVAIIFSDASTDYADSVKGRFTISRSNAKNTVYLQMNSLKPEDTAVYYCKSVLRAAGYGYFNQYWGQGTQVTVSS | – | binds | – |
